Holding throughout (details): yeast three-hybrid, YBZ-1, SC-Leu-His + 0.5 mM 3-AT, 4 days
Test [1] concerns the target T1, PUM1 PUF domain R6-DFQ N1043D + Y1044F (UniProt Q14671).
T1 sequence: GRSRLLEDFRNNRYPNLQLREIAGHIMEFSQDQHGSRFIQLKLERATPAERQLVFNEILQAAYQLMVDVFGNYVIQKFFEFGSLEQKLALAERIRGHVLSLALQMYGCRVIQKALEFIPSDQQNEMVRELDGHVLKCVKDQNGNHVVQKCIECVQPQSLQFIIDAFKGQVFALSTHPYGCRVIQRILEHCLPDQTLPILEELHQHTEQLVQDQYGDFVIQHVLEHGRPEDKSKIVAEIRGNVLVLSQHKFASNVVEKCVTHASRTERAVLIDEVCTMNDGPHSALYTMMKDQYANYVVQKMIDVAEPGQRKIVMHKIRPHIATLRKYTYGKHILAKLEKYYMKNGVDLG

In test [2] the target is T2, PUM1 PUF domain R6-DWI N1043D + Y1044W + Q1047I (UniProt Q14671).
T2 sequence: T1 sequence with F217W, Q220I

For test [3], the target named is T3, PUM1 PUF domain R6-DYQ N1043D (UniProt Q14671).
T3 sequence: T1 sequence with F217Y

Test [4] concerns the target T4, PUM1 PUF domain R6-GWR N1043G + Y1044W + Q1047R (Homo sapiens) (UniProt Q14671).
T4 sequence: T1 sequence with D216G, F217W, Q220R

The target in test [5] is T5, PUM1 PUF domain R6-HFR N1043H + Y1044F + Q1047R (UniProt Q14671).
T5 sequence: T1 sequence with D216H, Q220R

In test [6] the target is T6, PUM1 PUF domain R6-RFR N1043R + Y1044F + Q1047R (Homo sapiens) (UniProt Q14671).
T6 sequence: T1 sequence with D216R, Q220R

The target in test [7] is T7, PUM1 PUF domain R6-RRE N1043R + Y1044R + Q1047E (Homo sapiens) (UniProt Q14671).
T7 sequence: T1 sequence with D216R, F217R, Q220E

Test [8] concerns the target T8, PUM1 PUF domain R6-SFG N1043S + Y1044F + Q1047G (Homo sapiens) (UniProt Q14671).
T8 sequence: T1 sequence with D216S, Q220G

Test [9] addresses T9, PUM1 PUF domain R6-SWS N1043S + Y1044W + Q1047S (Homo sapiens) (UniProt Q14671).
T9 sequence: T1 sequence with D216S, F217W, Q220S

Test [10] has as its target T10, PUM1 PUF domain R6-TFR N1043T + Y1044F + Q1047R (Homo sapiens) (UniProt Q14671).
T10 sequence: T1 sequence with D216T, Q220R

The target of test [11] is T11, PUM1 PUF domain R6-VFH N1043V + Y1044F + Q1047H (UniProt Q14671).
T11 sequence: T1 sequence with D216V, Q220H

The target in test [12] is T12, PUM1 PUF domain R6-VFQ N1043V + Y1044F (UniProt Q14671).
T12 sequence: T1 sequence with D216V

Test [13] deals with T13, PUM1 PUF domain R6-VWL N1043V + Y1044W + Q1047L (Homo sapiens) (UniProt Q14671).
T13 sequence: T1 sequence with D216V, F217W, Q220L

The target of test [14] is T14, PUM1 PUF domain R6-VWS N1043V + Y1044W + Q1047S (UniProt Q14671).
T14 sequence: T1 sequence with D216V, F217W, Q220S

Test [15] deals with T15, PUM1 PUF domain R6-VWV N1043V + Y1044W + Q1047V (UniProt Q14671).
T15 sequence: T1 sequence with D216V, F217W, Q220V

In test [16] the target is T16, PUM1 PUF domain R6-VYG N1043V + Q1047G (UniProt Q14671).
T16 sequence: T1 sequence with D216V, F217Y, Q220G

Test [17] deals with T17, PUM1 PUF domain R6-VYL N1043V + Q1047L (UniProt Q14671).
T17 sequence: T1 sequence with D216V, F217Y, Q220L

The target in test [18] is T18, PUM1 PUF domain R6-WHR N1043W + Y1044H + Q1047R (UniProt Q14671).
T18 sequence: T1 sequence with D216W, F217H, Q220R

Test [19] has as its target T19, PUM1 PUF domain R6-YWL N1043Y + Y1044W + Q1047L (UniProt Q14671).
T19 sequence: T1 sequence with D216Y, F217W, Q220L

The target of test [20] is T20, PUM1 PUF domain R6-GFK N1043G + Y1044F + Q1047K (UniProt Q14671).
T20 sequence: T1 sequence with D216G, Q220K

From article PMC8384837 come the findings set out here.

Where a chain is given by its changes, count along the chain named. The list shows a part of the results. For some of these results: At the low end of the ranking the order means little.

Regarding “GGCUAGAACUAGUGGAUCCCCCGGCGCCCGGCGGCUCGAGCCCGGGUAAGUGGAAAUAGUCUGCAUGCCGCCGGGCGCCAUGCCUGCAGGUCGACUCUAGAAAACAUG”, the binding signal (log2 enrichment (interaction score)) in test [1] was -5.47; in test [2] it was -5.35; in test [3], -4.73; in test [4], -1.13; in test [5], -5.59; in test [6], -2.57. The binding signal (log2 enrichment (interaction score)) in [7] is -5.36; in test [8] it was -5.7; in test [9], -1.05; in [10] it was -5.13; in test [11], -5.8; in test [12], -6.16. For the same sequence, the binding signal (log2 enrichment (interaction score)) in test [13] was -0.25; in test [14], less than -9.9; in [15], less than -6.62; in test [16], less than -6.45; in test [17], less than -7.79; in test [18], less than -8.7. In test [19], the binding signal (log2 enrichment (interaction score)) was -6.89.

“GGCUAGAACUAGUGGAUCCCCCGGCGCCCGGCGGCUCGAGCCCGGGUAAGUGAAAAUAGUCUGCAUGCCGCCGGGCGCCAUGCCUGCAGGUCGACUCUAGAAAACAUG”: the binding signal (log2 enrichment (interaction score)) in test [20] was -5.78; in [4], -1.72; in test [5] it was -3.99; in test [8] it was 1.21; in test [10], 0.26.

In the case of “GGCUAGAACUAGUGGAUCCCCCGGCGCCCGGCGGCUCGAGCCCGGGUAAGUGCAAAUAGUCUGCAUGCCGCCGGGCGCCAUGCCUGCAGGUCGACUCUAGAAAACAUG”, the binding signal (log2 enrichment (interaction score)) in test [1] was -3.91; in test [2], -4.59; in test [3], -5.51; in test [20] it was less than -7.12; in [6], -2.98; in [7], 0.32. For the same sequence, the binding signal (log2 enrichment (interaction score)) is -4.63 in [9]; -4.64 in [11]; -4.9 in test [12]; -4.81 in [13]; less than -7.88 in test [14]; less than -8.44 in [15]. The binding signal (log2 enrichment (interaction score)) in test [16] was less than -8.45; in test [17], less than -7.25; in test [18], less than -7.38; in test [19] it was -4.63.
